# Results deposited as PubChem BioAssay AID1259308 (NCATS, 2017).
# Aim: 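Knock-downs that increase output of a recombinant reporter protein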 (primary screen)
# Cells: human HEK293 embryonic kidney cells stably expressing firefly luciferase (HEK-CMV-Luc2-Hygro)
# Reagents: single siRNA against human genes, 0.8 pmol siRNA per well
# Time to read-out: 72 h
# Read-out: 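Luciferase light (ONE-Glo) measured on one replicate plate set and viability (CellTiter-Glo) on the other, scaled to a negative control siRNA, with robust z-scores and luciferase per cell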
# Scale: total luciferase, z-score and total luciferase, % of control: higher = more reporter protein produced; luciferase per cell, z-score: higher = more reporter output per viable cell; viable cells, % of control: higher = more viable cells
# Active means: 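Active when the median/MAD z-score for overall luciferase is greater than 3; a gene was taken forward for validation with new siRNAs if at least two of its three siRNAs passed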
# Meaning of the calls: active = raised luciferase; inactive = no rise
# In all, the deposit lists about 59,000 reagents; this is a random part of them. About 1,510 of all reagents (2.6%) count as active. 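Calls use total luciferase alone and ignore viability, so some active siRNAs may act by altering cell number.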 Reagents against one gene are numbered here.
gene knocked down,reagent no.,"total luciferase, z-score","total luciferase, % of control","luciferase per cell, z-score","viable cells, % of control",call
RPL3L,1,0.253,86.9,0.411,87.2,inactive
RPL3L,2,-0.763,66.7,0.408,67,inactive
RPL3L,3,1.21,106,0.899,93.4,inactive
TM9SF4,1,0.0643,83.2,0.123,90,inactive
TM9SF4,2,1.58,113,1.12,94.2,inactive
TM9SF4,3,0.272,87.3,0.166,93.4,inactive
OR10A5,1,0.0167,82.2,0.315,84.6,inactive
OR10A5,2,-2.95,23.3,-1.94,43.4,inactive
OR10A5,3,1.37,109,0.419,109,inactive
HADH,1,1.35,109,0.43,108,inactive
HADH,2,0.382,89.5,0.219,94.4,inactive
HADH,3,-0.962,62.7,-0.617,82.5,inactive
EVI2A,1,0.0994,83.9,0.146,90.2,inactive
EVI2A,2,-1.78,46.4,-1.51,77.2,inactive
EVI2A,3,-1.6,50,-1.44,81.7,inactive
OPRPN,1,3.26,147,2.13,93.5,active
OPRPN,2,-1.79,46.4,-1.02,67.7,inactive
OPRPN,3,-1.08,60.5,0.789,54.9,inactive
TLE6,1,0.394,89.7,0.552,86.7,inactive
TLE6,2,-0.851,65,-0.626,85.6,inactive
TLE6,3,-1.93,43.6,-1.92,80.7,inactive
NKX1-1,1,-0.334,75.2,0.0346,83.3,inactive
NKX1-1,2,1.98,121,1.92,81.8,inactive
NKX1-1,3,0.795,97.7,1.26,78.4,inactive
RPLP1,1,-2.01,41.8,-0.642,55.3,inactive
RPLP1,2,-1.02,61.6,1.9,41.7,inactive
RPLP1,3,-2.16,38.9,-0.957,55.9,inactive

Part of the list above, reformatted:
{"gene knocked down": "TM9SF4", "reagent no.": 2, "total luciferase, z-score": 1.58, "total luciferase, % of control": 113, "luciferase per cell, z-score": 1.12, "viable cells, % of control": 94.2, "call": "inactive"}
{"gene knocked down": "TM9SF4", "reagent no.": 3, "total luciferase, z-score": 0.272, "total luciferase, % of control": 87.3, "luciferase per cell, z-score": 0.166, "viable cells, % of control": 93.4, "call": "inactive"}
{"gene knocked down": "OR10A5", "reagent no.": 1, "total luciferase, z-score": 0.0167, "total luciferase, % of control": 82.2, "luciferase per cell, z-score": 0.315, "viable cells, % of control": 84.6, "call": "inactive"}
{"gene knocked down": "OR10A5", "reagent no.": 2, "total luciferase, z-score": -2.95, "total luciferase, % of control": 23.3, "luciferase per cell, z-score": -1.94, "viable cells, % of control": 43.4, "call": "inactive"}
{"gene knocked down": "OR10A5", "reagent no.": 3, "total luciferase, z-score": 1.37, "total luciferase, % of control": 109, "luciferase per cell, z-score": 0.419, "viable cells, % of control": 109, "call": "inactive"}
{"gene knocked down": "HADH", "reagent no.": 1, "total luciferase, z-score": 1.35, "total luciferase, % of control": 109, "luciferase per cell, z-score": 0.43, "viable cells, % of control": 108, "call": "inactive"}
{"gene knocked down": "HADH", "reagent no.": 2, "total luciferase, z-score": 0.382, "total luciferase, % of control": 89.5, "luciferase per cell, z-score": 0.219, "viable cells, % of control": 94.4, "call": "inactive"}
{"gene knocked down": "HADH", "reagent no.": 3, "total luciferase, z-score": -0.962, "total luciferase, % of control": 62.7, "luciferase per cell, z-score": -0.617, "viable cells, % of control": 82.5, "call": "inactive"}

More reagents follow.
gene knocked down,reagent no.,"total luciferase, z-score","total luciferase, % of control","luciferase per cell, z-score","viable cells, % of control",call
PDXDC2P-NPIPB14P,1,0.122,84.3,0.542,81.7,inactive
PDXDC2P-NPIPB14P,2,0.473,91.3,0.456,90.5,inactive
PDXDC2P-NPIPB14P,3,0.101,83.9,-0.0382,94.7,inactive
ADORA1,1,1.17,105,0.402,106,inactive
ADORA1,2,-0.314,75.6,0.546,73.2,inactive
ADORA1,3,0.645,94.7,-0.0633,108,inactive
ENPP5,1,-0.46,72.7,-0.618,95.6,inactive
ENPP5,2,-0.349,74.9,0.224,78.9,inactive
ENPP5,3,-1.26,56.8,-1.13,85.4,inactive
DCST2,1,3.02,142,2.78,76.2,active
DCST2,2,1.05,103,1.64,74.6,inactive
DCST2,3,0.192,85.7,-0.00392,95.9,inactive
CHST9,1,-0.1,79.9,-0.446,100,inactive
CHST9,2,-0.571,70.5,-0.713,95.1,inactive
CHST9,3,1.04,103,0.151,110,inactive
GPANK1,1,0.371,89.3,0.754,81.8,inactive
GPANK1,2,0.602,93.9,0.793,85.1,inactive
GPANK1,3,0.443,90.7,0.261,94.6,inactive
MS4A3,1,1.79,117,1.88,80.1,inactive
MS4A3,2,0.196,85.8,0.491,84.2,inactive
MS4A3,3,-0.237,77.2,0.186,82.1,inactive
LYST,1,0.189,85.7,-0.426,107,inactive
LYST,2,-0.418,73.6,0.271,76.6,inactive
LYST,3,0.478,91.4,0.107,99.3,inactive
NCS1,1,-0.0732,80.4,-0.478,102,inactive
NCS1,2,0.342,88.7,0.0985,96.6,inactive
NCS1,3,-2.28,36.5,-1.92,67.6,inactive
ABCA12,1,0.0574,83,-0.0883,95,inactive
ABCA12,2,-0.22,77.5,-0.433,97.1,inactive
ABCA12,3,2.03,122,1.08,103,inactive
CHST7,1,-1.14,59.2,-1.15,89.6,inactive
CHST7,2,-0.252,76.9,-0.656,102,inactive
CHST7,3,-0.379,74.3,-0.93,106,inactive
LIPI,1,-0.921,63.6,-0.348,77.8,inactive
LIPI,2,0.0277,82.4,-0.0331,92.9,inactive
LIPI,3,0.972,101,-0.04,114,inactive
CPNE3,1,0.554,92.9,0.437,92.5,inactive
CPNE3,2,-0.903,63.9,-1.24,98.9,inactive
CPNE3,3,0.395,89.7,-0.0474,102,inactive
TLK1,1,-2.11,39.9,-1.65,68.7,inactive
TLK1,2,-0.0169,81.5,-0.599,107,inactive
TLK1,3,1.19,106,1.33,83.2,inactive
TEDC2-AS1,1,0.386,89.6,0.155,96.1,inactive
TEDC2-AS1,2,0.881,99.4,0.444,98.8,inactive
TEDC2-AS1,3,-0.689,68.2,-0.504,87,inactive
ZNF85,1,0.0517,82.9,0.852,74,inactive
ZNF85,2,-0.203,77.8,-0.0275,87.6,inactive
ZNF85,3,1.4,110,1.06,92.7,inactive
